# Reference: PubChem BioAssay AID504793 (Drosophila RNAi Screening Center, 2011)
# Assay: 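Knock-downs allowing continued mitosis even though DNA is damaged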 (primary screen)
# System: Drosophila S2R+ cells
# Reagents: long dsRNA against Drosophila genes, about 0.25 µg dsRNA per well
# Timing: 4 days of dsRNA, then 4 hours of drug before read-out
# Treatment: doxorubicin 0.5 µM for 4 hours to cause double-strand breaks, in cells also given a low, harmless dose of dsRNA against nbs to sensitise the assay
# Read-out: 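Per-well count of mitotic cells stained for phospho-histone H3 after doxorubicin exposure, used as mitotic index; counts are raw and not normalised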
# Direction: mitotic cells: higher = more cells in mitosis, weaker G2 arrest
# Call rule: 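a call needs confirmation in secondary tests, with other dsRNAs and a check of mitotic timing without damage, not just a high primary count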
# Meaning of the calls: active = confirmed in follow-up tests; inactive = not confirmed
# The deposit covers about 23,000 reagents; shown is a random part of those with a known target gene and a result. Over the whole deposit, 62 (0.27%) are marked active. 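Calls come from follow-up tests whose scores are not deposited, so confirmed genes may have low counts here; counts are not normalised per plate.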 Raw values vary from plate to plate and are shown uncorrected. Unmarked entries are inactive. A plus sign joins genes that one reagent is predicted to hit.
predicted target,DRSC id,"mitotic cells, replicate 1","mitotic cells, replicate 2"
alpha-Catr,DRSC04669,5,
alpha-Catr,DRSC28046,4,
spri,DRSC17984,4,
spri,DRSC17985,8,
spri,DRSC17986,10,
spri,DRSC17989,6,
spri,DRSC22927,6,
spri,DRSC28814,6,
fru,DRSC16953,7,2
fru,DRSC24960,6,
ng2 + ng1,DRSC23988,2,
babo,DRSC07581,6,
Nepl15,DRSC15630,3,
CG10555,DRSC23202,8,
CG10555,DRSC27738,12,
Fum2,DRSC18345,14,
Fum2,DRSC25313,9,
CG13670,DRSC10029,8,
CG13670,DRSC26092,9,
mud,DRSC19019,22,7
AANATL5,DRSC05994,5,
t,DRSC17815,16,
t,DRSC29460,3,
Cp19,DRSC11121,3,
Cp19,DRSC28639,6,
Or67d,DRSC10158,6,
CG7924,DRSC10931,6,
CG7924,DRSC25661,9,
PIG-Wa,DRSC00728,7,
CG16953,DRSC15167,5,
Vha16-3,DRSC10872,5,
Vha16-3,DRSC25513,9,
side-VI,DRSC14920,5,
side-VI,DRSC23088,6,
side-VI,DRSC28883,1,
Rae1,DRSC04577,5,
orb2,DRSC10540,9,
orb2,DRSC10541,11,
orb2,DRSC10542,4,
orb2,DRSC25697,8,
CG7564,DRSC10880,6,
CG7564,DRSC28225,15,
faf,DRSC16942,10,
Adk1,DRSC15514,6,
CG11839,DRSC14398,6,
BCL7-like,DRSC17729,6,
BCL7-like,DRSC29657,4,
jtb,DRSC06868,9,
Fhos,DRSC08943,4,
Fhos,DRSC10545,10,
Fhos,DRSC10546,4,
Fhos,DRSC10547,4,
Fhos,DRSC28627,7,
CG17362,DRSC10267,3,
Spn53F,DRSC06022,2,
glob3,DRSC12261,1,
Fadd,DRSC14122,5,
CG13887,DRSC08357,6,
Muc55B,DRSC21440,8,
Muc55B,DRSC27913,11,
Vha16-2,DRSC10873,3,
Vha16-2,DRSC25504,9,
CG33109,DRSC16533,4,
Tif-IA,DRSC03717,18,
Tif-IA,DRSC03726,6,
CG10102 (retired record),DRSC05963,6,
CG30099,DRSC07039,9,
CG30099,DRSC26526,5,
CG17107,DRSC02575,8,
CG17107,DRSC22627,10,
CG17107,DRSC25263,5,
Acn,DRSC02062,4,
Acn,DRSC29245,12,
Opbp,DRSC04966,8,
Opbp,DRSC28850,6,

Reprinted from the entries so far (4 entries):
predicted target,DRSC id,"mitotic cells, replicate 1","mitotic cells, replicate 2"
BCL7-like,DRSC29657,4,
jtb,DRSC06868,9,
Fhos,DRSC08943,4,
Fhos,DRSC10545,10,
